Whole data set: some 33,000 sequences, median “E-score (-0.5 to 0.5)” near -0.015, cut for the highest 2% near 0.3. The list shows a part of the results.
target: T1, Abf1 (UniProt P14164); experiment: PBM E-score (8-mer binding enrichment) (E-score (-0.5 to 0.5)); higher = stronger / more preferred TF binding; details: protein concentration: 200 nM; construct: GST-full length
T1 sequence: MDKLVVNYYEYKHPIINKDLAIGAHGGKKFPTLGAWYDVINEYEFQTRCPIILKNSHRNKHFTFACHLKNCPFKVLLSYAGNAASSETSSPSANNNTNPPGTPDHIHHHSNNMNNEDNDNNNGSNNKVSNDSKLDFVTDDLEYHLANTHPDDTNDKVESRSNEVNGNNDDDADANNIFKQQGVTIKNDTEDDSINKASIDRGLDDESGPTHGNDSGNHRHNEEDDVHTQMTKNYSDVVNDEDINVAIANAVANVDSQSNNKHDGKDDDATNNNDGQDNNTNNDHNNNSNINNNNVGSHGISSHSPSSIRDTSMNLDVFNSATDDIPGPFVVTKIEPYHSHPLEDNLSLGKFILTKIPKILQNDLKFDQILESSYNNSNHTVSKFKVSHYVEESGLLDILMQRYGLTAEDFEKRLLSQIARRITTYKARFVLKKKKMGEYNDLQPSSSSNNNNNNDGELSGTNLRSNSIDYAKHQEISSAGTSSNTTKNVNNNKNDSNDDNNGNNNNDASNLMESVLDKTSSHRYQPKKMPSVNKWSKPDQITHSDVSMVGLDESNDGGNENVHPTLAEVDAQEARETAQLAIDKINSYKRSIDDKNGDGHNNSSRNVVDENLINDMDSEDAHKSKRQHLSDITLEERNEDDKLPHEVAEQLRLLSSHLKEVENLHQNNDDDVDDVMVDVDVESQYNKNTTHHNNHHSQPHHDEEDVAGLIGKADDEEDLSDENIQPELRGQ
Method in brief: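 GST-tagged yeast TFs (full-length or DNA-binding domain) were made by PURExpress in vitro transcription/translation and applied at about 100-200 nM to universal all-10-mer Agilent arrays. The arrays were made double-stranded by primer extension, on fresh or once-stripped slides. Bound protein was detected with fluorescent anti-GST, and scans were normalised with masliner. Each ungapped eight-base word, pooled with its reverse complement, received an E-score (modified Wilcoxon-Mann-Whitney statistic) from the Universal PBM Analysis Suite.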

Sequence | PBM E-score
TCGGAAGA | -0.183
TCCATCGA | -0.0512
TGCGCGAA | -0.00725
TCTACTAA | 0.0564
CAATACCA | 0.114
GGTAGAGA | -0.143
AAATCGCG | 0.157
ACTTTACT | -0.107
ACGGAGCA | 0.138
ACGATCAA | 0.199
GAGATCGA | 0.0422
GCTGACCC | -0.239
CAACTGGC | -0.0854
CCTCCACC | -0.339
GGGCTTAA | -0.19
TAGTAGAA | -0.00786
ATTGTAGA | 0.0207
GCGGCGAA | -0.106
AAGCCTTA | -0.284
AAAGACTG | -0.375
GTCGTGCA | 0.374
AGGGTAGG | -0.0947
AGTGGTTA | 0.0354
CCATACGC | 0.0588
ATACAGTG | 0.011

Sequence | PBM E-score
ACTTGGTA | -0.00051
CTGGGGAC | -0.228
GGGGTACC | -0.181
AGTTATTC | -0.0527
AAGTAACA | -0.0471
AAAAAGGT | 0.0838
GCCTTGAC | -0.135
ACTACGAG | 0.133
CCGCTGAA | -0.153
CCTGCTCA | 0.0193
ACTCATAC | 0.153
CTTAGACA | -0.0898
AATCGCAT | 0.11
TATTTGAA | -0.00117
CCAACACA | 0.096
ATTGAAGC | -0.0707
AAGGTCTA | -0.112
CCTTAGCG | -0.104
GCCCAGAA | -0.225
CTAGTAGC | -0.0218
CCAGCGGC | -0.175
CTCATCTC | 0.169
GCGCGCAC | 0.074
CGGTGACG | 0.235
TACTAATA | 0.0826

Retrieved one by one from the list above, 3 records:
Sequence | PBM E-score
ACTTGGTA | -0.00051
ACTACGAG | 0.133
CTCATCTC | 0.169

More results.

Sequence | PBM E-score
GGCATGAC | 0.219
ATAACTAT | 0.0689
CGTGTGTA | 0.092
AATGCGTG | -0.0749
AATCCGGA | -0.0986
CGCCTCAA | -0.137
CACTTTTA | 0.107
AGTGAGTA | 0.169
ACGCCGCC | -0.205
AACGCGAA | -0.0539
GTCGAGTA | -0.0255
GTTAGACA | 0.249
GATAATCA | 0.192
AATTGAAA | 0.116
TGTAGTAA | 0.126
CATCATTC | 0.211
ATGTGAAG | 0.164
ATTCTGAC | 0.146
CCAGAATC | -0.0251
GCTCTAAC | -0.0444
CACTGAGG | -0.0917
GCAGCCAA | -0.0692
CATGGGGC | -0.336
CAGAAGTA | -0.0626
CTCGGCTC | -0.0525

Sequence | PBM E-score
AGGTAAGC | -0.251
TCAACCCA | -0.0217
ATGAGTGA | 0.177
TCAAAAAA | 0.145
AGTGATAG | 0.303
TGCACGAA | 0.368
TCAGTGGA | -0.163
CCAGCCGG | -0.236
ACAAACGA | 0.191
ATCTGCAT | 0.0571
ACTGTTAT | 0.0955
AAGTAACT | 0.196
CGAAATCA | 0.226
CGAGAAGA | 0.122
GCCTCACA | 0.0334
ATCGACCG | -0.122
CGAGTTGC | -0.159
CTGGGCGA | -0.0445
AAGGCGAT | 0.0786
ATCGCGAA | 0.199
GCGAAAAC | -0.193
CATGGATA | -0.00259
AACACTTA | -0.206
AATAACGT | 0.0535
ATAACAGG | -0.0349

Sequence | PBM E-score
CGGGAGTC | -0.0516
CGTTAACA | 0.153
CTCGCTAC | 0.0945
CCAAGGGG | -0.116
GATAGTGA | 0.264
GAGCTAGC | -0.123
AAGATGAG | 0.00927
AAGAGCAC | -0.116
CCACGCGA | 0.018
GAGCCATA | 0.148
AAACCATA | 0.00947
CGTGTCGC | 0.188
AGAAGCGA | 0.0932
CAATCAGA | -0.159
CACACTGG | -0.166
ACAGTCAG | -0.0673
CACCAACC | -0.0713
ACAATTAA | 0.0237
CTATACAG | -0.117
CGCACGAG | 0.156
AGTTCTTA | 0.107
ATATACCC | 0.0559
ATGAGAAT | 0.129
CGCGAGCG | -0.0571
AAGACACT | -0.1

Sequence | PBM E-score
AGGTCTGG | -0.199
CGGTGCGC | -0.271
CACTGCTC | -0.0279
CACGTCTA | 0.166
GGTTATAC | 0.0965
AATCACTG | 0.204
GTATGAAC | -0.0505
AATCTTTC | 0.159
GCACCCTA | -0.149
AATCCGTA | 0.214
GACATACC | 0.112
ATACACTG | -0.163
ACACTCGG | 0.0882
GCTGGGAC | -0.122
GGGACTGA | -0.222
CTGGATGA | 0.0651
CCGCTAGA | -0.23
AGAAAGCT | -0.0217
AGTAGGAG | -0.255
GGGGTAAA | -0.0666
AGAAGGTG | 0.00925
ACGGACCT | 0.0844
GGCGGGCA | -0.0513
AGGAAGCG | -0.0323
AACAGTCC | -0.295

Part of the list above, as a markdown table:

| Sequence | PBM E-score |
| --- | --- |
| AGTGATAG | 0.303 |
| TGCACGAA | 0.368 |

Continuation:

Sequence | PBM E-score
AGATCGCA | 0.0409
TCAGATAA | 0.119
AGGCATCA | -0.155
CGAAGAGA | 0.00312
ACGCCCAG | -0.226
CGCCGACC | -0.183
CCGCACCC | -0.229
CAACAACA | 0.0233
GTAGTAGA | 0.0877
CGCCAGCA | -0.106
TATATGCA | 0.0345
AGTACGAA | 0.368
TAGTCGAA | -0.0557
GCTGGCGA | -0.155
ATGCCTCA | -0.00924
CGGAGCAG | -0.0605
CAGTGGAC | 0.0873
ATTATAGC | 0.121
ATGCCACC | -0.148
CGGCGAGA | -0.0282
CTACATAC | 0.093
ATGCGTAG | -0.0981
ACGATACT | 0.285
AATGCCAG | -0.155
CCTGCATC | -0.0146

Sequence | PBM E-score
CCGGCCAA | 0.0306
GTCGTTCA | 0.26
GATTTAAC | 0.0538
CTACGGCA | 0.291
ATTATCCA | 0.258
CTGTGTTA | 0.134
GGTTTCTA | -0.0874
GGTGTAAA | -0.142
CTACACTA | 0.0167
CACGTTAC | 0.0218
CTTACTTA | -0.0806
CTGTAGGC | -0.263
TCTCATCA | 0.145
ATTAATCG | 0.15
ATCACTTA | 0.355
GTGGGGCA | -0.175
GGCTCTGA | -0.0571
AATTGTGG | -0.0845
ACAGGTCG | -0.0539
AACCAACC | -0.119
ATAGTTAC | 0.0283
GAAAGCAA | -0.0239
ACACGATA | 0.295
GACCTAAA | 0.0819
AGGTAGGA | -0.0462

Sequence | PBM E-score
CTAGGGAG | -0.257
TGGTCCAA | -0.196
GGGCCCCC | -0.462
TGAGCGAA | 0.121
AACCCCGA | -0.00484
CCGTAAGA | 0.168
CTAGAACA | 0.0949
ACCTTAGC | -0.111
CTGGCTGA | 0.0491
GTGTAGTA | 0.0449
AACGTCGT | 0.234
AGGGTCAT | -0.0478
AGCGTACG | 0.0472
ATTAATAG | 0.165
AGTCGCAA | -0.0319
CTCAAAGC | 0.0933
AAGGCCCT | -0.131
CCCACCAA | -0.122
GAATGTGA | 0.0214
